Test results: article PMC6156083
No constants are given. Whether binding was seen depends on the method and setting. Binding seen in cells or lysates may run through a third protein. These calls come from enrichment with a bait or labelling near it, and not all partners need be listed.

Protein sequences, listed by entry. Tags and fused reporters are not part of them. Lines headed by an entry give the natural chain unless they say otherwise; changes in a name come on top. Residues count along the entry.
UniProt Q8NBP7: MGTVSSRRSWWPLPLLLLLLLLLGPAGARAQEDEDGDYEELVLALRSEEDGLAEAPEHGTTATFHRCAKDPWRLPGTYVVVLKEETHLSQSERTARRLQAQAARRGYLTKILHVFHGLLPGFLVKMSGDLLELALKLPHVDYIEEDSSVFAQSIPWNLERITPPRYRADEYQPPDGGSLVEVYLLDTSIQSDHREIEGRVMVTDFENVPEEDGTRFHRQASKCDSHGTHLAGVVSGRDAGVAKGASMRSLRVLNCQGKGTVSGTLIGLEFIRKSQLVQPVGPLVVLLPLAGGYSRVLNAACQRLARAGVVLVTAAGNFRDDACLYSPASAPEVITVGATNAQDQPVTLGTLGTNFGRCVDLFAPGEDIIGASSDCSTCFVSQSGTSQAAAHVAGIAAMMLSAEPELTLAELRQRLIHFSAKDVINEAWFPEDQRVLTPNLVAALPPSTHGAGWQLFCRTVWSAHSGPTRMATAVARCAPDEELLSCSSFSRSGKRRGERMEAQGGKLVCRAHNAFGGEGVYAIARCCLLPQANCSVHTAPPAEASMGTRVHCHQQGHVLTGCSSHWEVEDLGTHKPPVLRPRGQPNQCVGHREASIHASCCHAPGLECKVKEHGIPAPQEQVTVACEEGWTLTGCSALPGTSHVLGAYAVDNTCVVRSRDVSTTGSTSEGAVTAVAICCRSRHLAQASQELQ
UniProt Q9Y6B6: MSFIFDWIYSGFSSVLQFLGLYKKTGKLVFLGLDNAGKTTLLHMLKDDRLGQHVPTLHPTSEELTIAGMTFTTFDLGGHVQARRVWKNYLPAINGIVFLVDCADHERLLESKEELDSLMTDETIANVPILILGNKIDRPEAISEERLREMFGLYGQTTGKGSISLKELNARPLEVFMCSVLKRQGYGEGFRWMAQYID
UniProt Q9NR31: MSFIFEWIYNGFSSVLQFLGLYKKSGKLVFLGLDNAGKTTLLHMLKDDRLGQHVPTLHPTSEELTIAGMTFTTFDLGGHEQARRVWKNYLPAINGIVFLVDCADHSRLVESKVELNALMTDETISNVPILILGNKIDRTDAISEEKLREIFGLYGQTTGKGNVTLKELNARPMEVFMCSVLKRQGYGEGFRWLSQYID
UniProt P01009, residues 25-418: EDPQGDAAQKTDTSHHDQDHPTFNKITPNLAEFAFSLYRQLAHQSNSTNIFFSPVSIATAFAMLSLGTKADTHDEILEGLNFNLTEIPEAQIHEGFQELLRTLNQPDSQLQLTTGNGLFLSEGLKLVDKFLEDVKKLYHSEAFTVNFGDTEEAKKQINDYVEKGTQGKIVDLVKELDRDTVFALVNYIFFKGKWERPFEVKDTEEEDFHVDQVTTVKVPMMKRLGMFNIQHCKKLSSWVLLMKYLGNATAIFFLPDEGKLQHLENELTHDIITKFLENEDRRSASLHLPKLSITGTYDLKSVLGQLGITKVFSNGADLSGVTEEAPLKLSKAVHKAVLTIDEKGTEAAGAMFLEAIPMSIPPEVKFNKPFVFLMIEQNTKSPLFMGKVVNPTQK
UniProt O15260: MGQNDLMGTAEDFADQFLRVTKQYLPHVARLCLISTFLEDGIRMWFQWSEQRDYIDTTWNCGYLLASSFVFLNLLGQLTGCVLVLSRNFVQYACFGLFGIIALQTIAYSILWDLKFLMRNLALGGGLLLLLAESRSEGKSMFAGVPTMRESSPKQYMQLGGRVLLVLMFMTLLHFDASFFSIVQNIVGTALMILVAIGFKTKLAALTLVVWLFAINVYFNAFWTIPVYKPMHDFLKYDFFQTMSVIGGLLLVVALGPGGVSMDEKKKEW

How the values were obtained:
Test in all cases: proximity labelling; BioID: BirA*-fused bait expressed in stable HEK293 Flp-In T-REx cells, tetracycline 1 ug/mL and biotin 50 uM for 24 hr; biotinylated proteins purified on streptavidin-agarose, on-bead trypsin digest, mass spectrometry; SAINT BFDR <=1% against negative control samples; biological duplicates
[1] = molecular target: PCSK9-BirA* fusion (PCSK9 fused to the mutant biotin ligase E. coli BirA*(R118G)) (human) (UniProt Q8NBP7)
SAR1B-BirA* fusion = SAR1B-BirA* fusion (UniProt Q9Y6B6)
SAR1A-BirA* fusion = SAR1A-BirA* fusion (UniProt Q9NR31)
[2] = molecular target: alpha-1 antitrypsin-BirA* fusion (human) (UniProt P01009)

## SURF4 (endogenous prey in BioID) (from UniProt O15260 1-269) (receptor)
[1]
  binding: binds
SAR1B-BirA* fusion
  binding: binds
SAR1A-BirA* fusion
  binding: binds

B1: LMAN1 (endogenous prey in BioID) (receptor, UniProt P49257 31-510)
chain: DGVGGDPAVALPHRRFEYKYSFKGPHLVQSDGTVPFWAHAGNAIPSSDQIRVAPSLKSQRGSVWTKTKAAFENWEVEVTFRVTGRGRIGADGLAIWYAENQGLEGPVFGSADLWNGVGIFFDSFDNDGKKNNPAIVIIGNNGQIHYDHQNDGASQALASCQRDFRNKPYPVRAKITYYQNTLTVMINNGFTPDKNDYEFCAKVENMIIPAQGHFGISAATGGLADDHDVLSFLTFQLTEPGKEPPTPDKEISEKEKEKYQEEFEHFQQELDKKKEEFQKGHPDLQGQPAEEIFESVGDRELRQVFEGQNRIHLEIKQLNRQLDMILDEQRRYVSSLTEEISKRGAGMPGQHGQITQQELDTVVKTQHEILRQVNEMKNSMSETVRLVSGMQHPGSAGGVYETTQHFIDIKEHLHIVKRDIDNLVQRNMPSNEKPKCPELPPFPSCLSTVHFIIFVVVQTVLFIGYIMYRSQQEAAAKKFF
modifications: biotinylated on primary amines by BirA* (sites not given)
[2]
  binding: binds
